Literature values, collected in US20120258172A1, “Compositions For The Treatment of Central Nervous System Disorders Including Depression Employing Novel Drug Combination Therapy To Reduce Suicidality In Patients” (priority 2010, published 2012).
At least one compound was matched to its structure with a doubt left.

Columns and labels:
[1] = system: patients with schizophrenia; conditions: compared to olanzapine; cited from earlier work
[2] = system: patients presenting with mood disorders and schizoaffective disorder; conditions: 362 subjects over a 7 year period (3911 subject exposure years); cited from earlier work
study patients = conditions: review of 33 studies; cited from earlier work
[3] = system: U.S. patients with bipolar disorder; conditions: cited from earlier work

SMILES | effect on suicide risk (frequency of completed suicides and suicide attempts) [1] | reduction of suicide risk [2] [%] | overall rates of suicidal acts (suicide attempts and completed suicides), off-treatment relative to on lithium treatment (study patients) [fold] | lower suicide risk than patients treated with depakote [3] [fold]
CN1CCN(C2=Nc3cc(Cl)ccc3Nc3ccccc32)CC1 [clozapine] | reduced suicide risk |  |  | 
[Li] [lithium] |  | 77 | 3 | 2.7
